{"source": "PubChem BioAssay AID1224829 (NIAID, 2016)", "assay": "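Follow-up of TLR4-NF-kappaB regulators using six separate siRNAs for each gene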 (follow-up of hits)", "cell system": "mouse RAW264.7 G9 macrophage reporter cells", "reagent": "single siRNA against mouse genes, 100 nM", "time to read-out": "2 days of siRNA knock-down, then 40 min of LPS before fixing", "treatment": "LPS (Salmonella minnesota R595) at 10 ng/ml", "measurement": "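Imaging of GFP-p65 after 40 min of LPS; nuclear over perinuclear ring intensity ratio, scaled to plate median and non-targeting control wells, given as z-score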", "reading the numbers": "p65 translocation z-score: higher = more nuclear NF-kappaB p65 after LPS", "rule for the call": "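An siRNA is called active when the mean z-score of its two replicates is above 2 or below -2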", "calls": "active = changed p65 translocation (either direction); inactive = no clear change", "note": "The whole screen tested about 3,800 reagents; shown is an unselected part. 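Calls cover raised and lowered translocation; gene median uses one vendor's three siRNAs; qiagen siRNAs acted more weakly than ambion siRNAs.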 The numbers tell different reagents against one gene apart. Further read-outs or replicates are left out here."}
{"gene symbol": "Abcb1a (ATP-binding cassette, sub-family B member 1A)", "reagent no.": 1, "siRNA vendor or control pool": "ambion single siRNA", "p65 translocation z-score, replicate mean": -1.27, "p65 translocation z-score, replicate 1": -1.04, "Call": "inactive"}
{"gene symbol": "Abcb1a (ATP-binding cassette, sub-family B member 1A)", "reagent no.": 2, "siRNA vendor or control pool": "ambion single siRNA", "p65 translocation z-score, replicate mean": -0.33, "p65 translocation z-score, replicate 1": 0.0599, "Call": "inactive"}
{"gene symbol": "Abcb1a (ATP-binding cassette, sub-family B member 1A)", "reagent no.": 3, "siRNA vendor or control pool": "ambion single siRNA", "p65 translocation z-score, replicate mean": -4.69, "p65 translocation z-score, replicate 1": -5.19, "Call": "active"}
{"gene symbol": "Abcb1a (ATP-binding cassette, sub-family B member 1A)", "reagent no.": 4, "siRNA vendor or control pool": "qiagen single siRNA", "p65 translocation z-score, replicate mean": 2.38, "p65 translocation z-score, replicate 1": 1.62, "Call": "active"}
{"gene symbol": "Abcb1a (ATP-binding cassette, sub-family B member 1A)", "reagent no.": 5, "siRNA vendor or control pool": "qiagen single siRNA", "p65 translocation z-score, replicate mean": -2.81, "p65 translocation z-score, replicate 1": -2.25, "Call": "active"}
{"gene symbol": "Abcb1a (ATP-binding cassette, sub-family B member 1A)", "reagent no.": 6, "siRNA vendor or control pool": "qiagen single siRNA", "p65 translocation z-score, replicate mean": -1.24, "p65 translocation z-score, replicate 1": -1.85, "Call": "inactive"}
{"gene symbol": "Dtx3 (deltex 3, E3 ubiquitin ligase)", "reagent no.": 1, "siRNA vendor or control pool": "ambion single siRNA", "p65 translocation z-score, replicate mean": -0.606, "p65 translocation z-score, replicate 1": -0.0217, "Call": "inactive"}
{"gene symbol": "Dtx3 (deltex 3, E3 ubiquitin ligase)", "reagent no.": 2, "siRNA vendor or control pool": "ambion single siRNA", "p65 translocation z-score, replicate mean": -0.65, "p65 translocation z-score, replicate 1": -0.65, "Call": "inactive"}
{"gene symbol": "Dtx3 (deltex 3, E3 ubiquitin ligase)", "reagent no.": 3, "siRNA vendor or control pool": "ambion single siRNA", "p65 translocation z-score, replicate mean": -2.83, "p65 translocation z-score, replicate 1": -3.25, "Call": "active"}
{"gene symbol": "Dtx3 (deltex 3, E3 ubiquitin ligase)", "reagent no.": 4, "siRNA vendor or control pool": "qiagen single siRNA", "p65 translocation z-score, replicate mean": -0.0222, "p65 translocation z-score, replicate 1": -0.535, "Call": "inactive"}
{"gene symbol": "Dtx3 (deltex 3, E3 ubiquitin ligase)", "reagent no.": 5, "siRNA vendor or control pool": "qiagen single siRNA", "p65 translocation z-score, replicate mean": -0.425, "p65 translocation z-score, replicate 1": -0.425, "Call": "inactive"}
{"gene symbol": "Dtx3 (deltex 3, E3 ubiquitin ligase)", "reagent no.": 6, "siRNA vendor or control pool": "qiagen single siRNA", "p65 translocation z-score, replicate mean": -3.12, "p65 translocation z-score, replicate 1": -3.12, "Call": "active"}

2 entries from above, set out differently.
Dtx3 (deltex 3, E3 ubiquitin ligase) #4, siRNA vendor or control pool qiagen single siRNA
- p65 translocation z-score, replicate mean: -0.0222
- p65 translocation z-score, replicate 1: -0.535
- Call: inactive

Dtx3 (deltex 3, E3 ubiquitin ligase) #5, siRNA vendor or control pool qiagen single siRNA
- p65 translocation z-score, replicate mean: -0.425
- p65 translocation z-score, replicate 1: -0.425
- Call: inactive

More results:
{"gene symbol": "Fads3 (fatty acid desaturase 3)", "reagent no.": 1, "siRNA vendor or control pool": "ambion single siRNA", "p65 translocation z-score, replicate mean": 0.156, "p65 translocation z-score, replicate 1": 0.51, "Call": "inactive"}
{"gene symbol": "Fads3 (fatty acid desaturase 3)", "reagent no.": 2, "siRNA vendor or control pool": "ambion single siRNA", "p65 translocation z-score, replicate mean": 0.774, "p65 translocation z-score, replicate 1": 1.71, "Call": "inactive"}
{"gene symbol": "Fads3 (fatty acid desaturase 3)", "reagent no.": 3, "siRNA vendor or control pool": "ambion single siRNA", "p65 translocation z-score, replicate mean": -1.75, "p65 translocation z-score, replicate 1": -2.63, "Call": "inactive"}
{"gene symbol": "Fads3 (fatty acid desaturase 3)", "reagent no.": 4, "siRNA vendor or control pool": "qiagen single siRNA", "p65 translocation z-score, replicate mean": 0.909, "p65 translocation z-score, replicate 1": 0.371, "Call": "inactive"}
{"gene symbol": "Fads3 (fatty acid desaturase 3)", "reagent no.": 5, "siRNA vendor or control pool": "qiagen single siRNA", "p65 translocation z-score, replicate mean": -0.415, "p65 translocation z-score, replicate 1": 0.679, "Call": "inactive"}
{"gene symbol": "Fads3 (fatty acid desaturase 3)", "reagent no.": 6, "siRNA vendor or control pool": "qiagen single siRNA", "p65 translocation z-score, replicate mean": -2.7, "p65 translocation z-score, replicate 1": -2.6, "Call": "active"}
{"gene symbol": "Eif3b (eukaryotic translation initiation factor 3, subunit B)", "reagent no.": 1, "siRNA vendor or control pool": "ambion single siRNA", "p65 translocation z-score, replicate mean": -0.432, "p65 translocation z-score, replicate 1": 1.09, "Call": "inactive"}
{"gene symbol": "Eif3b (eukaryotic translation initiation factor 3, subunit B)", "reagent no.": 2, "siRNA vendor or control pool": "ambion single siRNA", "p65 translocation z-score, replicate mean": -3.58, "p65 translocation z-score, replicate 1": -3.9, "Call": "active"}
{"gene symbol": "Eif3b (eukaryotic translation initiation factor 3, subunit B)", "reagent no.": 3, "siRNA vendor or control pool": "ambion single siRNA", "p65 translocation z-score, replicate mean": -2.92, "p65 translocation z-score, replicate 1": -2.92, "Call": "active"}
{"gene symbol": "Eif3b (eukaryotic translation initiation factor 3, subunit B)", "reagent no.": 4, "siRNA vendor or control pool": "qiagen single siRNA", "p65 translocation z-score, replicate mean": 0.448, "p65 translocation z-score, replicate 1": -0.0991, "Call": "inactive"}
{"gene symbol": "Eif3b (eukaryotic translation initiation factor 3, subunit B)", "reagent no.": 5, "siRNA vendor or control pool": "qiagen single siRNA", "p65 translocation z-score, replicate mean": 0.592, "p65 translocation z-score, replicate 1": 1.7, "Call": "inactive"}
{"gene symbol": "Eif3b (eukaryotic translation initiation factor 3, subunit B)", "reagent no.": 6, "siRNA vendor or control pool": "qiagen single siRNA", "p65 translocation z-score, replicate mean": -2.17, "p65 translocation z-score, replicate 1": -2.17, "Call": "active"}
{"gene symbol": "Il1r1 (interleukin 1 receptor, type I)", "reagent no.": 1, "siRNA vendor or control pool": "ambion single siRNA", "p65 translocation z-score, replicate mean": -0.547, "p65 translocation z-score, replicate 1": -0.71, "Call": "inactive"}
{"gene symbol": "Il1r1 (interleukin 1 receptor, type I)", "reagent no.": 2, "siRNA vendor or control pool": "ambion single siRNA", "p65 translocation z-score, replicate mean": -9.3, "p65 translocation z-score, replicate 1": -9.3, "Call": "active"}
{"gene symbol": "Il1r1 (interleukin 1 receptor, type I)", "reagent no.": 3, "siRNA vendor or control pool": "ambion single siRNA", "p65 translocation z-score, replicate mean": -1.65, "p65 translocation z-score, replicate 1": -1.93, "Call": "inactive"}
{"gene symbol": "Il1r1 (interleukin 1 receptor, type I)", "reagent no.": 4, "siRNA vendor or control pool": "qiagen single siRNA", "p65 translocation z-score, replicate mean": 1.18, "p65 translocation z-score, replicate 1": -0.139, "Call": "inactive"}
{"gene symbol": "Il1r1 (interleukin 1 receptor, type I)", "reagent no.": 5, "siRNA vendor or control pool": "qiagen single siRNA", "p65 translocation z-score, replicate mean": 1.84, "p65 translocation z-score, replicate 1": 0.359, "Call": "inactive"}
{"gene symbol": "Il1r1 (interleukin 1 receptor, type I)", "reagent no.": 6, "siRNA vendor or control pool": "qiagen single siRNA", "p65 translocation z-score, replicate mean": -0.294, "p65 translocation z-score, replicate 1": -0.294, "Call": "inactive"}
